{
  "source": "patent US8835438B2",
  "about": "“Method of treating memory/learning dysfunctions caused by schizophrenia with lurasidone” (Sumitomo Dainippon Pharma Co., Ltd., priority 2004, dated 2014)",
  "system": "MK-801-induced memory/learning dysfunctions",
  "test": "Step-through passive avoidance response test, MK-801-induced memory/learning dysfunctions",
  "type": "in vivo, Wistar male rats",
  "conditions": "MK-801 administered in both training and testing sessions",
  "procedure": "Wistar male rats (7 weeks old) were used. […] Serotonin 5-HT 1A receptor antagonist WAY-100635 or noradrenaline a2 receptor antagonist 1-PP was dissolved in a physiological saline solution (Otsuka Pharmaceutical Co., Ltd.) and used as a test compound. As an NMDA type receptor antagonist, MK-801 hydrogen maleate (SIGMA-ALDRICH M-107) was dissolved in a physiological saline solution (Otsuka Pharmaceutical Co., Ltd.). […] For the evaluation of state-dependency of MC-801, MK-801 was administered before the training session, and a physiological saline solution was administered before the testing session instead. The dosing value thereof was 5 ml/kg for each.\nThe step-through type passive avoidance response test was carried out in the following manners with the use of an apparatus consisting of a light-dark box, a slide door dividing the light-dark box and a shock generator (manufactured by O'hara & Co., Ltd., PA-2030A, PA-3001A) as an experimental apparatus. […] The period between the time just after the slide door was opened and the time at which the rats entered into the dark box was measured as a step-through latency. […] The step-through latency at the testing session was measured up to 300 seconds, and the step-through latency over 300 seconds was regarded as 300 seconds. […]",
  "note": "Entries after “also recorded” stand apart in the source; their conditions may differ. At least one structure is not confirmed: it was looked up by name or label, or the drawing left a doubt.",
  "data": [
    {"smiles": "CN1CCN(C2=Nc3cc(Cl)ccc3Nc3ccccc32)CC1", "note": "[Clozapine, clozapine]", "values": [
      {"measurement": "drug efficacy on memory dysfunction (in words)", "result": "memory/learning improving efficacy is recognized; also recorded: a significant improving activity was observed"}
    ]}
  ]
}
